Laboratory results reported in patent US20230286955A1, “INHIBITORS OF THEM1” (Cornell University, priority 2022, published 2023).
The structures given here were assigned with low confidence; some may be wrong.

Amino acid sequences for entries named in this document (tags omitted). A change or cut given only in a name is not applied to a line headed by its entry. Residues count along the entry.
UniProt Q8WYK0, whole entry: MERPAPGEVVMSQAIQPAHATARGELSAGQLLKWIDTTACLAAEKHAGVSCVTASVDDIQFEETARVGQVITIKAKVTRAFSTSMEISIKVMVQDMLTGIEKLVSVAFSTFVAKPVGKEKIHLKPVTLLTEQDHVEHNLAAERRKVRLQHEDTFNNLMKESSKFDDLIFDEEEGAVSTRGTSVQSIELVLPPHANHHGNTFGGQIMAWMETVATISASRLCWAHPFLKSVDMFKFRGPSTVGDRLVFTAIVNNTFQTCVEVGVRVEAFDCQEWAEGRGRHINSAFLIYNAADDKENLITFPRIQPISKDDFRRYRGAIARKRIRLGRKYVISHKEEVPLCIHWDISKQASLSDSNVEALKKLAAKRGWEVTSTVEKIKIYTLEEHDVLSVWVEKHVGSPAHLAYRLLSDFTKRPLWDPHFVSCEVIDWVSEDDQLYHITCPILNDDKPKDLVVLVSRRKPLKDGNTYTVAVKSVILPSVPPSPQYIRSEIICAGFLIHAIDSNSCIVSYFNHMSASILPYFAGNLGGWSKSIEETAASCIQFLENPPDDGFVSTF
UniProt Q8WXI4, 14-594 isoform 2 limits assumed: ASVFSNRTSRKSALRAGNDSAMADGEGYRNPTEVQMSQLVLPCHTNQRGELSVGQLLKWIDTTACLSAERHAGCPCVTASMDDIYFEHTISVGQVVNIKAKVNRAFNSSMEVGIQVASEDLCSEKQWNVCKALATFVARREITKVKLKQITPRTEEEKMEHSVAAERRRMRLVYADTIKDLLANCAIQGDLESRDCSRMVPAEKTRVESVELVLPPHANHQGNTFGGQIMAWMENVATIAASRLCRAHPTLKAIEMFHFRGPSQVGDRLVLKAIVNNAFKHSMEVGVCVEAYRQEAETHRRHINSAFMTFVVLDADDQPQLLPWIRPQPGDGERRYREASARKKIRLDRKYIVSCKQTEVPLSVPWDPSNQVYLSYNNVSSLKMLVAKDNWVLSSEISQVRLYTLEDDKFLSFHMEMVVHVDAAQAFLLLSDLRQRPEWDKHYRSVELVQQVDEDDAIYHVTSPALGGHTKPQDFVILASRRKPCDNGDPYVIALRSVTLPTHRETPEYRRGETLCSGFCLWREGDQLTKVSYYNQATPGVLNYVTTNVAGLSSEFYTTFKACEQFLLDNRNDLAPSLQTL
UniProt Q8WXI4, 339-594 isoform 2 limits assumed: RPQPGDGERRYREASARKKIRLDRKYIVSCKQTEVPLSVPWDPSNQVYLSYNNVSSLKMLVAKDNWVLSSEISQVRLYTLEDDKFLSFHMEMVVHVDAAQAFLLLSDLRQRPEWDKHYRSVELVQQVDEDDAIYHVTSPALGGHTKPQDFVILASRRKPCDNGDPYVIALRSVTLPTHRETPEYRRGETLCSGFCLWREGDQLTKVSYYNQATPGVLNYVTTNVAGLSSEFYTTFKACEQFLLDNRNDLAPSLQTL
UniProt Q8WXI4, 43-329 limits assumed, stated change not applied: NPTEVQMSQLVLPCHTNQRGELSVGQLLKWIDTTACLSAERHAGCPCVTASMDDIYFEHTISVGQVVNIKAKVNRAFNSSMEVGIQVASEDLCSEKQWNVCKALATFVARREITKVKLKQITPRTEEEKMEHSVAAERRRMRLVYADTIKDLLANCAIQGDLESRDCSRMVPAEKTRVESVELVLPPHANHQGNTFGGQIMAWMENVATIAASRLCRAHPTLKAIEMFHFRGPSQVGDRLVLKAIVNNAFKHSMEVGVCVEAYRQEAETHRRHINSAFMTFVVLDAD

Legend:
[1] = system: primary brown adipocytes cultured from A-Them1Tg mice; test: Oxygen consumption rates (OCR) in primary brown adipocytes; details: compounds at their in vitro IC50 concentrations, 30 min, NE 1 μM; vs wild type (DMSO)
[2] = Critical aggregation concentration by dynamic light scattering; details: PBS, 22° C.
[3] = molecular target: full-length human Acot12 (Homo sapiens, UniProt Q8WYK0); details: read-out: Kd, Acot12; MST, 100 nM labeled protein, 22° C.
[4] = molecular target: Them1 START domain (Homo sapiens, UniProt Q8WXI4); test: Microscale thermophoresis binding, START domain; details: for Kd: read-out: Kd, START, MST, 100 nM labeled protein, 22° C., mean (s.e.m.)
[5] = molecular target: Them1-ΔSTART (Homo sapiens, UniProt Q8WXI4); test: Microscale thermophoresis binding, Them1-ΔSTART; details: for Kd: read-out: Kd, Thioesterase domains (Them1-ΔSTART ), MST, 100 nM labeled protein, 22° C.
[6] = molecular target: full-length Them1 (Homo sapiens, UniProt Q8WXI4); test: Microscale thermophoresis binding, full-length Them1; details: for Kd: read-out: Kd, Them1, MST, 100 nM labeled His-tagged protein, 22° C., mean (s.e.m.)
[7] = molecular target: recombinant human Them1 (Homo sapiens, UniProt Q8WXI4); test: Acot activity assay (fluorometric, C14-CoA), inhibition of Them1; details: mean with s.e.m., triplicate determinations

SMILES | OCR in A-Them1Tg brown adipocytes, reversal of Them1 suppression [1] | critical aggregation concentration [2] | Kd [3] | Kd [4] | Kd [5] | Kd [6] | IC50 [7] | binding affinity to the START domain compared to the parent U1 compound ([4]; in words) | binding to Them1-ΔSTART ([5]; in words) | Kd / binding affinity to full-length Them1 compared to the parent U1 compound ([6]; in words)
CCOC(=O)N1CCN(C(c2cccs2)c2c(CC)[nH]c3ccccc23)CC1 (stereo not drawn) | remained suppressed | 122 µM | > 125 µM | 3.56 µM | > 125 µM | 1.05 µM | – | – | – | –
CCOC(=O)N1CCN(C(c2cccs2)c2c(C)n(C)c3ccccc23)CC1 (stereo not drawn) | remained suppressed | – | > 125 µM | 4.12 µM | > 125 µM | 3.39 µM | 8.49 µM | tighter | did not bind | tighter
